# Laboratory results from patent publication US20260062426A1, “CYCLIN DEPENDENT KINASE DEGRADERS AND METHODS OF USE THEREOF” (Differentiated Therapeutics Inc, priority 2023, published 2026).
# Amino acid sequences for entries named in this document (tags omitted).
# UniProt P50750, whole entry: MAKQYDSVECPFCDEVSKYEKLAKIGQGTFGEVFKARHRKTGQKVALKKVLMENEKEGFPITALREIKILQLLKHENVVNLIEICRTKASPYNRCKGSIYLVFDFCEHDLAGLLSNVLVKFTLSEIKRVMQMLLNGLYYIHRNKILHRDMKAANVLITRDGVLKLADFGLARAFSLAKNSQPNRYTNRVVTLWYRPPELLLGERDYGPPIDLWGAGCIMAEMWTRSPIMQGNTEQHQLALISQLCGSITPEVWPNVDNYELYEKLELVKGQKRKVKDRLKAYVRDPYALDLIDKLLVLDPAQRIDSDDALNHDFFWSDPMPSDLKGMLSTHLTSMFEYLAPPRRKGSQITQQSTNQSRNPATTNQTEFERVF
# UniProt P24864, whole entry: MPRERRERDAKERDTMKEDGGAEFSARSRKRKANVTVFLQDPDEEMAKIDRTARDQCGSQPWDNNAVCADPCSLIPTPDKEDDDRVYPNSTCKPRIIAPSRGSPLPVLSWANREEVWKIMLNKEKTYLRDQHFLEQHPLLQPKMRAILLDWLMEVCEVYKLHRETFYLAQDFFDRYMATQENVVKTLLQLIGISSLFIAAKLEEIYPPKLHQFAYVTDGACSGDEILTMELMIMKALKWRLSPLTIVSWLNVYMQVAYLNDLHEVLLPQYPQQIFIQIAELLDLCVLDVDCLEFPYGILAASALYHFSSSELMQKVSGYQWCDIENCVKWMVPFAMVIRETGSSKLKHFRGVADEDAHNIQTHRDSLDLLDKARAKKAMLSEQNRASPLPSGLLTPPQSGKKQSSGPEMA
# Tests used:
# Assay type in all cases: cell-based
# CDK2 = CDK2 (Homo sapiens, UniProt P24941); test: CDK2 HIBIT PQ (protein quantification), degradation; settings: for CDK2 HIBIT PQ Max (%): Max = Maximum; for DC50: read-out: CDK2 HIBIT PQ DC50, PQ = Protein Quantification
# Procedure, shortened: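 After overnight incubation at 37° C and 5% CO2 in 384-well plates (1.6×10^5 cells/well, 50 uL, DMEM with 10% FBS), HEK293 cells with HiBiT-tagged CDK2 were treated with compound for 6 hours. Detection used 20 μL of Nano-Glo HiBiT lytic reagent with LgBiT protein, 20 minutes of shaking at room temperature and an EnVision reading, with 0.1% DMSO as high control and medium alone as low control. These readings were the basis for DC50 and maximal degradation.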
# CDK9 = CDK9 (Homo sapiens, UniProt P50750); test: CDK9 HIBIT PQ (protein quantification), degradation
# Procedure, shortened: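 CDK9 protein was read by HiBiT assay in treated HEK293 cells carrying HiBiT-tagged CDK9, seeded at 1.6×10^5 cells/well in 50 uL in 384-well plates and incubated overnight at 37° C and 5% CO2. Controls were 0.1% DMSO-treated cells (high) and culture medium only (low). Maximal degradation, Dmax and DC50 were calculated from these readings.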
# CCNE1 = CCNE1 (Homo sapiens, UniProt P24864+P24941); test: CCNE1 HIBIT PQ (protein quantification), degradation; settings: for CCNE1 HIBIT PQ Max (%): Max = Maximum; for DC50: read-out: CCNE1 HIBIT PQ DC50, PQ = Protein Quantification
# Procedure, shortened: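 HEK293 cells with HiBiT-tagged CCNE1 were cultured in EMEM containing 10% FBS, plated at 1.6×10⁵ cells/well in 50 uL in 384-well plates and left overnight at 37° C with 5% CO₂. After 6 hours of compound exposure, a HiBiT assay measured CCNE1 protein, with 0.1% DMSO-treated cells as the high control and medium alone as the low control. DC50 and maximal degradation came from these readings.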
Structure (SMILES),CDK2 HIBIT PQ Max (%) (CDK2),DC50 (CDK2) [nM],CDK9 HIBIT PQ Max (%) (CDK9; Max = Maximum),"DC50 (CDK9; read-out: CDK9 HIBIT PQ DC50, PQ = Protein Quantification) [nM]",CCNE1 HIBIT PQ Max (%) (CCNE1),DC50 (CCNE1) [nM]
CC(C)Oc1c(-c2cn[nH]c2)ncn2nc(NC3CCN(S(=O)(=O)c4cccc(NC5CN(Cc6ccc7c(c6)CN(C6CCC(=O)NC6=O)C7=O)C5)c4)CC3)nc12 (stereo not shown),82,0.8,69,9.15,54,1.02
"CC(C)Oc1c(-c2cn[nH]c2)ncn2nc(Nc3ccc(S(=O)(=O)c4cccc(CN5CCN(c6ccc7c(N8CCC(=O)NC8=O)nn(C)c7c6)C(C(C)C)C5)c4)cc3F)nc12 (single isomer, unassigned) [108]",92,10.4,,,77,79.8
"CC(C)Oc1c(-c2cn[nH]c2)ncn2nc(Nc3ccc(S(=O)(=O)c4cccc(CN5CCN(c6ccc7c(N8CCC(=O)NC8=O)nn(C)c7c6)C(C(C)C)C5)c4)cc3F)nc12 (single isomer, unassigned) [109]",,9.7,,,78,71.7

# The match of structure and compound is tentative.
